Reference: patent publication EP4506005A1, “JAK-INHIBITOR FOR THE TREATMENT OF TEN, SJS AND SJS/TEN OVERLAP” (Max-Planck-Gesellschaft zur Förderung der Wissenschaften …, priority 2023, dated 2025)
At least one structure is not confirmed: it was looked up by name or label, or the drawing left a doubt.

System: mouse model of TEN
Assay: Smac mimetic TEN mouse model

Question: How did the “clinical and histological disease severity” value (oral administration) turn out when CCS(=O)(=O)N1CC(CC#N)(n2cc(-c3ncnc4[nH]ccc34)cn2)C1 [Baricitinib] was run?
Answer: ameliorated clinical and histological disease severity

Question: And the “macroscopic disease severity (clinical assessment score: Nikolsky sign, edema, rubor)” value (oral gavage twice daily, Tofacitinib 30 mg/kg or Baricitinib 10 mg/kg, day 1 and 3 after s.c. smac mimetic injection)?
Answer: markedly reduced macroscopic disease severity
